Laboratory results taken from paper doi:10.1101/2022.04.06.487319 (bioRxiv, 2022).
These are yes or no findings as the source states them, for the method shown. In cells and extracts the contact can be indirect. Some entries that bind do so weakly or less than the wild type. Tags and fused reporters may be left off the sequences shown.

Biological target: T1, GFP-Mek1 (pGAL1::GFP-MEK1) (Saccharomyces cerevisiae) (UniProt P24719)
T1 sequence: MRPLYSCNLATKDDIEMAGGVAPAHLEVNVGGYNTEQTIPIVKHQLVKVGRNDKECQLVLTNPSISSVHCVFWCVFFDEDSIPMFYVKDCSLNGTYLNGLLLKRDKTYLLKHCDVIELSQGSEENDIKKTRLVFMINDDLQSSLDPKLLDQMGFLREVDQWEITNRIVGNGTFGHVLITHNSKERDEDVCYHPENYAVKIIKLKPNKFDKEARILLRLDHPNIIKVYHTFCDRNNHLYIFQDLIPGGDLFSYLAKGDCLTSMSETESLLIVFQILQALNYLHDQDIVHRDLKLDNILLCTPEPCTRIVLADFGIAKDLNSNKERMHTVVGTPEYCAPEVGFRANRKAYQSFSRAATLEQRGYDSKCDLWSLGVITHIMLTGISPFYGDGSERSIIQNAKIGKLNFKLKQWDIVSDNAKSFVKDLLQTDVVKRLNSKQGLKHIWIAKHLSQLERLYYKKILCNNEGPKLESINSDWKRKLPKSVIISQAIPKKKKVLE
Experiment: co-IP

binding: binds
B1: Hop1 (pGAL1::HOP1), untagged (protein, UniProt P20050 1-605)
chain: MSNKQLVKPKTETKTEITTEQSQKLLQTMLTMSFGCLAFLRGLFPDDIFVDQRFVPEKVEKNYNKQNTSQNNSIKIKTLIRGKSAQADLLLDWLEKGVFKSIRLKCLKALSLGIFLEDPTDLLENYIFSFDYDEENNVNINVNLSGNKKGSKNADPENETISLLDSRRMVQQLMRRFIIITQSLEPLPQKKFLTMRLMFNDNVDEDYQPELFKDATFDKRATLKVPTNLDNDAIDVGTLNTKHHKVALSVLSAATSSMEKAGNTNFIRVDPFDLILQQQEENKLEESVPTKPQNFVTSQTTNVLGNLLNSSQASIQPTQFVSNNPVTGICSCECGLEVPKAATVLKTCKSCRKTLHGICYGNFLHSSIEKCFTCIFGPSLDTKWSKFQDLMMIRKVFRFLVRKKKGFPASITELIDSFINVEDQNNEVKERVAFALFVFFLDETLCLDNGGKPSQTIRYVTSSVLVDVKGIVIPNTRKQLNVNHEYKWHFTTSSPKAESFYQEVLPNSRKQVESWLQDITNLRKVYSEALSPSSTLQELDLNSSLPTQDPIISGQKRRRYDLDEYLEEDKSSVVNDTIKAKDFDESVPAKIRKISVSKKTLKSNW
